# Values quoted from earlier work in US20060115514A1, “Chelating and binding chemicals to a medical implant, medical device formed, and therapeutic applications” (priority 2004, published 2006).
# For at least one compound, name, drawing or mass did not settle the structure.
# Assays:
# [1] = test system: organ cultured human Saphenous vein grafts
# restenosis = details: oral administration
Compound,MMP-9 activity [1],SMC proliferation and migration [1],neointima formation [1],benefit against restenosis (restenosis)
CCC(C)(C)C(=O)O[C@H]1C[C@@H](C)C=C2C=C[C@H](C)[C@H](CC[C@@H]3C[C@@H](O)CC(=O)O3)[C@H]21 [simvastatin],reduced activity,inhibition,inhibited,
CO[C@H]1C[C@@H]2CC[C@@H](C)[C@@](O)(O2)C(=O)C(=O)N2CCCC[C@H]2C(=O)O[C@H]([C@H](C)C[C@@H]2CC[C@@H](O)[C@H](OC)C2)CC(=O)[C@H](C)/C=C(\C)[C@@H](O)[C@@H](OC)C(=O)[C@H](C)C[C@H](C)/C=C/C=C/C=C/1C [sirolimus],,,,failed to show any benefit
